This experiment deals with T1, MAD1L1 (human), Q9Y6D9.
T1 chain: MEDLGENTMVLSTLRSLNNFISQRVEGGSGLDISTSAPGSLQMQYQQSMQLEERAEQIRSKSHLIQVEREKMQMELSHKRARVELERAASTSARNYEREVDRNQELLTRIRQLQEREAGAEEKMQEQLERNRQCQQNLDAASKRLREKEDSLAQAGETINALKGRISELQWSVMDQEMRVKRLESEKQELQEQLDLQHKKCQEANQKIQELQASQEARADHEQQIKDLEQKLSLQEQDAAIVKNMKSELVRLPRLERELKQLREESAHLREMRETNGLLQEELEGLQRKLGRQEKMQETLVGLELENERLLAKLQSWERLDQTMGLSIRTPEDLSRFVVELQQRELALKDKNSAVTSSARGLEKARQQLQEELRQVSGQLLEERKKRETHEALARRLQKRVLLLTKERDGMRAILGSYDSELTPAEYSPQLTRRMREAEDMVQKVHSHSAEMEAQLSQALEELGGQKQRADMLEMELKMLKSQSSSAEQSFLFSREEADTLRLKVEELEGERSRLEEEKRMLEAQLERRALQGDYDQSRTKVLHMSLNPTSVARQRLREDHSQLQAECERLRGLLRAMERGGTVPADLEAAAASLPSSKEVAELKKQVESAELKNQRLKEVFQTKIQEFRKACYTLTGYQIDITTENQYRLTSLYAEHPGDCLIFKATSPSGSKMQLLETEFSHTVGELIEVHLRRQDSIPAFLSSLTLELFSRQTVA
Kind of experiment: proximity labelling. The conditions noted are these: remark: other sources report otherwise.

No constants are given. Whether binding was seen depends on the method and setting. Binding seen in cells or lysates may run through a third protein. Here binding means that the protein was enriched with, or labelled near, the bait; the list need not be complete.

B1: NUP107, P57740 1-925 (protein)
chain: MDRSGFGEISSPVIREAEVTRTARKQSAQKRVLLQASQDENFGNTTPRNQVIPRTPSSFRQPFTPTSRSLLRQPDISCILGTGGKSPRLTQSSGFFGNLSMVTNLDDSNWAAAFSSQRSGLFTNTEPHSITEDVTISAVMLREDDPGEAASMSMFSDFLQSFLKHSSSTVFDLVEEYENICGSQVNILSKIVSRATPGLQKFSKTASMLWLLQQEMVTWRLLASLYRDRIQSALEEESVFAVTAVNASEKTVVEALFQRDSLVRQSQLVVDWLESIAKDEIGEFSDNIEFYAKSVYWENTLHTLKQRQLTSYVGSVRPLVTELDPDAPIRQKMPLDDLDREDEVRLLKYLFTLIRAGMTEEAQRLCKRCGQAWRAATLEGWKLYHDPNVNGGTELEPVEGNPYRRIWKISCWRMAEDELFNRYERAIYAALSGNLKQLLPVCDTWEDTVWAYFRVMVDSLVEQEIQTSVATLDETEELPREYLGANWTLEKVFEELQATDKKRVLEENQEHYHIVQKFLILGDIDGLMDEFSKWLSKSRNNLPGHLLRFMTHLILFFRTLGLQTKEEVSIEVLKTYIQLLIREKHTNLIAFYTCHLPQDLAVAQYALFLESVTEFEQRHHCLELAKEADLDVATITKTVVENIRKKDNGEFSHHDLAPALDTGTTEEDRLKIDVIDWLVFDPAQRAEALKQGNAIMRKFLASKKHEAAKEVFVKIPQDSIAEIYNQCEEQGMESPLPAEDDNAIREHLCIRAYLEAHETFNEWFKHMNSVPQKPALIPQPTFTEKVAHEHKEKKYEMDFGIWKGHLDALTADVKEKMYNVLLFVDGGWMVDVREDAKEDHERTHQMVLLRKLCLPMLCFLLHTILHSTGQYQECLQLADMVSSERHKLYLVFSKEELRKLLQKLRESSLMLLDQGLDPLGYEIQL
As to B1, the binding entry is given as “binds”.

These data come from paper doi:10.1101/2020.06.04.133710.
